These results are taken from paper PMC5660092.

In this assay the target is His-CaMKII-WT. The experiment in a line: co-IP; HEK293T (Fig. 7a) or HEK293 (Fig. 7d) cells co-transfected with His-CaMKII and Id-1 constructs; 6 uM ionomycin or 10 uM KN-93 for 24 h in Fig. 7a; His-tagged proteins precipitated with anti-His, western blot.

No constants are given. Whether binding was seen depends on the method and setting. In cells and extracts the contact can be indirect. Binding can be weak; no strength is given. Sequences can lack the tags named with a protein.

B1: Myc-Id-1 FL (full-length) (protein, UniProt P41134 1-155)
chain: MKVASGSTATAAAGPSCALKAGKTASGAGEVVRCLSEQSVAISRCAGGAGARLPALLDEQQVNVLLYDMNGCYSRLKELVPTLPQNRKVSKVEILQHVIDYIRDLQLELNSESEVGTPGGRGLPVRAPLSTLNGEISALTAEAACVPADDRILCR
Regarding B1, the binding result is listed as “binds”.
